{
  "sequences": {"note": "Chains of the proteins cited; added tags and fusions are not shown.", "UniProt P57682": "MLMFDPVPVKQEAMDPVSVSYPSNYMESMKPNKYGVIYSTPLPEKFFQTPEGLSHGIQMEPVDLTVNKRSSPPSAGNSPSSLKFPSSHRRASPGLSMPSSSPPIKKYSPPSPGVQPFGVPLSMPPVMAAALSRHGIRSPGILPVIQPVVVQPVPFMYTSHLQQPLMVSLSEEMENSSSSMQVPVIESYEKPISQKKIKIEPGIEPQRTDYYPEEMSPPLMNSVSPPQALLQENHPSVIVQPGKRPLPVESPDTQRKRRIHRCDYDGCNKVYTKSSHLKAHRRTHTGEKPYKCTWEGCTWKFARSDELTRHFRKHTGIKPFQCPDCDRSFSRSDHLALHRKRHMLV", "UniProt P08047": "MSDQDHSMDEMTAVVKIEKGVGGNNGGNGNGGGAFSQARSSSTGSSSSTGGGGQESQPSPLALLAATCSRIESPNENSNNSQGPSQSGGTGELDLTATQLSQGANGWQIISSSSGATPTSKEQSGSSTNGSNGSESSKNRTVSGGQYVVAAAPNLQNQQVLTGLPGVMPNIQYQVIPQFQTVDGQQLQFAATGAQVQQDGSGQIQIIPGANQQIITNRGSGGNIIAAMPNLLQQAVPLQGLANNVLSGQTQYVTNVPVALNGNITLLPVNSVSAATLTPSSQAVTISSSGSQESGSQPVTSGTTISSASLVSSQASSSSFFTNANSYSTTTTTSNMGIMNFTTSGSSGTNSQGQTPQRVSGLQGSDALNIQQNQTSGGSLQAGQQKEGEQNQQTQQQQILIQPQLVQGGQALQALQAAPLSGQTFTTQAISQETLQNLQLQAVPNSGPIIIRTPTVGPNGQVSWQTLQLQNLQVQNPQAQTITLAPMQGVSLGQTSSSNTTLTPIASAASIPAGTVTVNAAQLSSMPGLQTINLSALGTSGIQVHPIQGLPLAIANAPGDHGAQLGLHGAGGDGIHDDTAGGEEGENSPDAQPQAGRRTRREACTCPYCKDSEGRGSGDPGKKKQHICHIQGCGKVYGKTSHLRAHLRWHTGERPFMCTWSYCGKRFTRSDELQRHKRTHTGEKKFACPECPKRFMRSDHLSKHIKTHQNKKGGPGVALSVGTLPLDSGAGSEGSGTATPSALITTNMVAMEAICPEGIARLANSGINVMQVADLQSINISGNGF"},
  "source": "paper PMC13344282",
  "molecules": {"B1": {"name": "NFX1 (protein, UniProt Q12986 1-1120)", "chain": "MAEAPPVSGTFKFNTDAAEFIPQEKKNSGLNCGTQRRLDSNRIGRRNYSSPPPCHLSRQVPYDEISAVHQHSYHPSGSKPKSQQTSFQSSPCNKSPKSHGLQNQPWQKLRNEKHHIRVKKAQSLAEQTSDTAGLESSTRSESGTDLREHSPSESEKEVVGADPRGAKPKKATQFVYSYGRGPKVKGKLKCEWSNRTTPKPEDAGPESTKPVGVFHPDSSEASSRKGVLDGYGARRNEQRRYPQKRPPWEVEGARPRPGRNPPKQEGHRHTNAGHRNNMGPIPKDDLNERPAKSTCDSENLAVINKSSRRVDQEKCTVRRQDPQVVSPFSRGKQNHVLKNVETHTGSLIEQLTTEKYECMVCCELVRVTAPVWSCQSCYHVFHLNCIKKWARSPASQADGQSGWRCPACQNVSAHVPNTYTCFCGKVKNPEWSRNEIPHSCGEVCRKKQPGQDCPHSCNLLCHPGPCPPCPAFMTKTCECGRTRHTVRCGQAVSVHCSNPCENILNCGQHQCAELCHGGQCQPCQIILNQVCYCGSTSRDVLCGTDVGKSDGFGDFSCLKICGKDLKCGNHTCSQVCHPQPCQQCPRLPQLVRCCPCGQTPLSQLLELGSSSRKTCMDPVPSCGKVCGKPLPCGSLDFIHTCEKLCHEGDCGPCSRTSVISCRCSFRTKELPCTSLKSEDATFMCDKRCNKKRLCGRHKCNEICCVDKEHKCPLICGRKLRCGLHRCEEPCHRGNCQTCWQASFDELTCHCGASVIYPPVPCGTRPPECTQTCARVHECDHPVYHSCHSEEKCPPCTFLTQKWCMGKHEFRSNIPCHLVDISCGLPCSATLPCGMHKCQRLCHKGECLVDEPCKQPCTTPRADCGHPCMAPCHTSSPCPVTACKAKVELQCECGRRKEMVICSEASSTYQRIAAISMASKITDMQLGGSVEISKLITKKEVHQARLECDEECSALERKKRLAEAFHISEDSDPFNIRSSGSKFSDSLKEDARKDLKFVSDVEKEMETLVEAVNKGKNSKKSHSFPPMNRDHRRIIHDLAQVYGLESVSYDSEPKRNVVVTAIRGKSVCPPTTLTGVLEREMQARPPPPIPHHRHQSDKNPGSSNLQKITKEPIIDYFDVQD"}},
  "target": "T1, SYCP1 (synaptonemal complex protein 1), endogenous in MCF7 cells (human (endogenous in MCF7)) (UniProt Q15431)",
  "T1 sequence": "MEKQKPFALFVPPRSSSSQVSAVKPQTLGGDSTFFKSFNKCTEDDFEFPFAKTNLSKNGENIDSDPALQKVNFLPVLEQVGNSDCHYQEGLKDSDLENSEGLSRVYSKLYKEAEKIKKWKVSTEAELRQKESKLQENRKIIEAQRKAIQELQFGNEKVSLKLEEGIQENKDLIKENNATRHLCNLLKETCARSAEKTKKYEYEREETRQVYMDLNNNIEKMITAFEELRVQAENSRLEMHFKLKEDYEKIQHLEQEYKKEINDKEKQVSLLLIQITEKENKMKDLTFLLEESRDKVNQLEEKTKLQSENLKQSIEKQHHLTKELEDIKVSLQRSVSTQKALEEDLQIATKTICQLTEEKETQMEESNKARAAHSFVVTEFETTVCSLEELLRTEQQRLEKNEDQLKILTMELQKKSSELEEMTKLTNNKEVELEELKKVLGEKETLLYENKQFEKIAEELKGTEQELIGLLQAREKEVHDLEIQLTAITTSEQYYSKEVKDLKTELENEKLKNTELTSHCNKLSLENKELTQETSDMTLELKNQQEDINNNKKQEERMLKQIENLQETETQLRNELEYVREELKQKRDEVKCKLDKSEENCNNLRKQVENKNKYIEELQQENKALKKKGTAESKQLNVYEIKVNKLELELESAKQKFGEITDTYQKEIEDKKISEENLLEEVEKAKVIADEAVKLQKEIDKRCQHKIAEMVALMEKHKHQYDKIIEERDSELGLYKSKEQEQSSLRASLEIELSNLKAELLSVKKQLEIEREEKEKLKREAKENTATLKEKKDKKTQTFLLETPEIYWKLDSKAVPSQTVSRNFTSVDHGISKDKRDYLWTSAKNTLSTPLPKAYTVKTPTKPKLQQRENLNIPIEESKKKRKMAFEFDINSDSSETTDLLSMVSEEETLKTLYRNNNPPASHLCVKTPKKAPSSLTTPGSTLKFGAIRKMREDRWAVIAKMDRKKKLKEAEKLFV",
  "assay": "co-IP; endogenous SYCP1 precipitated from MCF7 lysate with anti-SYCP1 (Abcam, 15090) and protein G sepharose, overnight at 4°C; washes with PBS, 0.2% Triton X-100, 350 mM NaCl and PBS, 0.2% Triton X-100; Western blot for the transcription factors",
  "note": "Results are given in words; binding and its absence hold for the method and conditions named. In cells and extracts the contact can be indirect. Some entries that bind do so weakly or less than the wild type.",
  "data": [
    {"molecule": "KLF3 (from UniProt P57682 1-345)", "values": [
      {"measurement": "binding", "result": "no binding"}
    ]},
    {"molecule": "SP1 (from UniProt P08047 1-785)", "values": [
      {"measurement": "binding", "result": "binds"}
    ]},
    {"molecule": "B1", "values": [
      {"measurement": "binding", "result": "no binding"}
    ]}
  ]
}
